The text below walks through data of patent publication US20160207976A1.

These are yes or no findings as the source states them, for the method shown. A result given as binding can be weak or reduced; the word gives no strength.

Assay [1] has as its target Glycoprotein VI (GPVI) purified from human platelets (human). The experiment in a line: affinity chromatography of platelet membrane glycoproteins on convulxin-Sepharose 4B.
The target is the same in assay [2]. The experiment in a line: affinity chromatography of platelet membrane glycoproteins on immobilised convulxin.

B1: convulxin, snake C-type lectin from the Tropical Rattlesnake Crotalus durissus terrificus (protein)
chain 1: GLHCPSDWYYYDQHCYRIFNEEMNWEDAEWFCTKQAKGAHLVSIKSAKEADFVAWMVTQNIEESFSHVSIGLRVQNKEKQCSTKWSDGSSVSYDNLLDLYITKCSLLKKETGFRKWFVASCIGKIPFVCKFPPQC
chain 2: GFCCPSHWSSYDRYCYKVFKQEMTWADAEKFCTQQHTGSHLVSFHSTEEVDFVVKMTHQSLKSTFFWIGANNIWNKCNWQWSDGTKPEYKEWHEEFECLISRTFDNQWLSAPCSDTYSFVCKFEA
Consider B1, for which the binding entry in assay [1] and in assay [2] was “binds” each time.
